Measured values from patent publication US20050266562.
For some assays here: Where cells or extracts were used, other partners may take part. For some assays here: Construct, isoform or probe ends are uncertain for at least one entry. For some assays here: A negative result means that nothing was seen under these conditions. For some assays here: Tags and fusion partners may be left off the protein sequences shown.

The chains behind the UniProt entries cited, without tags or fusion partners. Where a name states a change or a piece, a line headed by the entry shows the natural chain unless it says otherwise. Residues count along the entry.
UniProt P08047, 2-785: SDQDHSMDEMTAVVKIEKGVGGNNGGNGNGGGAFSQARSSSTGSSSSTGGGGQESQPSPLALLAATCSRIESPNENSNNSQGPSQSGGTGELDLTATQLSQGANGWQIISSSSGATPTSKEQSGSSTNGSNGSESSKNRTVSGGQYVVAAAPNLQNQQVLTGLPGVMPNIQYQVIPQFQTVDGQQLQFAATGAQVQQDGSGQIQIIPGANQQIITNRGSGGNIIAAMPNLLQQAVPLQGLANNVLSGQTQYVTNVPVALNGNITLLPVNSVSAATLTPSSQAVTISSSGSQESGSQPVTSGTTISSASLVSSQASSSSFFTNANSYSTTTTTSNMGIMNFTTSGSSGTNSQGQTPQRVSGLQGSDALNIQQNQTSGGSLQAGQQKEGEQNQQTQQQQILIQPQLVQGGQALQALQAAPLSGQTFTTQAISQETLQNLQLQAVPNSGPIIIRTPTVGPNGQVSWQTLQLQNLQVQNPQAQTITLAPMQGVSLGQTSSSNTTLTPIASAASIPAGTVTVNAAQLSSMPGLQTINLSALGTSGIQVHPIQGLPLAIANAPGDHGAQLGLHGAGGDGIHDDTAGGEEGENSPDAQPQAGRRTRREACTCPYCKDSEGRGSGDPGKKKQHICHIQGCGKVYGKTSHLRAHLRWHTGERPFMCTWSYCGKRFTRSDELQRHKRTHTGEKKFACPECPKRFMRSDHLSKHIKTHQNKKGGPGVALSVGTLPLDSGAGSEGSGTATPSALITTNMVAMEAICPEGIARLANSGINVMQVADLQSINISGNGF
UniProt Q02447: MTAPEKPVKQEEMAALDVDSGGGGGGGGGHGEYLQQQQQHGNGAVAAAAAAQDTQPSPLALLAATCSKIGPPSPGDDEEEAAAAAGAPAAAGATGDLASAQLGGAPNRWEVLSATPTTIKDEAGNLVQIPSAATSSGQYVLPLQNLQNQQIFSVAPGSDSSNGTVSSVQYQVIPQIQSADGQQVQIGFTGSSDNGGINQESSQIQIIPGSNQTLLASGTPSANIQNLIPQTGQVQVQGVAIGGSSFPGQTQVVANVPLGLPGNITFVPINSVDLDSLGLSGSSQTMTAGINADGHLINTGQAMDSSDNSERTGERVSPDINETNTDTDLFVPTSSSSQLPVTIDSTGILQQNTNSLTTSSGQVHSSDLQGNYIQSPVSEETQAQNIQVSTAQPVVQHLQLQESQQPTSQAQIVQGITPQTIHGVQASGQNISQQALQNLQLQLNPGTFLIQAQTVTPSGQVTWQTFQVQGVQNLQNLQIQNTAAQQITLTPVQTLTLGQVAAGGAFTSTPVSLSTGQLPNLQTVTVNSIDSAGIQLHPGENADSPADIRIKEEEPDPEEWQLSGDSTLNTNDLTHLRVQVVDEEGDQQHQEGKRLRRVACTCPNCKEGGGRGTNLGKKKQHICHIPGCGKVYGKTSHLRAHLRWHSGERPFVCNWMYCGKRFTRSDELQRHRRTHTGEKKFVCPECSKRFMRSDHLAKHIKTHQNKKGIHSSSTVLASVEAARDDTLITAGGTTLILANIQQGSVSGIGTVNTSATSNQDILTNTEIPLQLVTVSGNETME

Key:
Sp1 [1] = target: Sp1 (UniProt P08047); assay: EMSA; conditions: THP1 nuclear extract complex supershifted with anti-Sp1 antibody, protein in an extract, protein details: endogenous
Sp1 [2] = target: Sp1 (UniProt P08047); assay: activity in cells; conditions: results similar to -591/+74; protein in cells
Sp2 = target: T1, Sp2 (UniProt Q02086); assay: activity in cells; conditions: results similar to -591/+74; protein in cells
T1 sequence (looked up, limits assumed): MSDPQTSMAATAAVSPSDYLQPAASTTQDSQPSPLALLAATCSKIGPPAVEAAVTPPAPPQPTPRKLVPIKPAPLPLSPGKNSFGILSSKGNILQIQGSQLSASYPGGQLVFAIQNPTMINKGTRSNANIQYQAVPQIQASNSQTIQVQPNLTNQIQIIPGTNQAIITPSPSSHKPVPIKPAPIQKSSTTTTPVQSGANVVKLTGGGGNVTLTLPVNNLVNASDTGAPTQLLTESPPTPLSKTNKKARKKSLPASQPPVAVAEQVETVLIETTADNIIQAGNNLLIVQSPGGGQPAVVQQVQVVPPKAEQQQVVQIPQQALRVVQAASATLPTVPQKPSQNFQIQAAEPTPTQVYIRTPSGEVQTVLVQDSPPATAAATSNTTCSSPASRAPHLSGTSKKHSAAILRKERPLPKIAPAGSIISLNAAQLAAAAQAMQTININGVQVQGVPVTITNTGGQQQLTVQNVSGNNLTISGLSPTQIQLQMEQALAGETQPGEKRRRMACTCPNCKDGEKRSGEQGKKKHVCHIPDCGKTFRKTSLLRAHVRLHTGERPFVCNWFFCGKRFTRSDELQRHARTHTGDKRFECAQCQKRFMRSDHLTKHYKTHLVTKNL

Sp3 = Sp3 (UniProt Q02447); assay: activity in cells; conditions: results similar to -591/+74; protein in cells
Sp1 [3] = target: Sp1 (UniProt P08047); assay: footprint; conditions: DNase I; purified Sp1 protects -63 to -40; 6.25 mM MgCl2, 50 mM KCl, pH 8.0, room temp; purified recombinant protein; protein details: purified Sp1 protein, Promega; label: 32P

CGCCCCTCCTACCCACTGTGCCCC (double strand) [CD11d -63/-40 probe]
binding result (Sp1 [1]): binds

GTCCATTCTCCTCTGGAGGGGCTCTGCTTTTTGAAACCACACCCTGGCCTAGCTCCCCTTCTCCCTGCCTCTCTGCAGGCTCACATCCACATGCCAAGACCTCTGCAGCCATTCTGCTTCCTGTCCTTCCACTCCTGTGGGACCTCAGAGAGCTACGGGGCTCCCTGGGTACCAACTGGCTCCTGAGGCCTGGGGGAGGGTGGTCTTCTGGGAGAAGGAAGCCAGGTCCCTGCAGGTTGTGGAGGGGGACAGAATGAGGGTTTTTCCCCAGGATGTTGTTGGCCCCTGCCCCCACTTCTGTTCCATAATTAACCACGCCCCTCCTACCCACTGTGCCCCTCTTCCTGCTGTGTGGAGGCCCTGAATCATTATTTTAACTACCCCCTGGGAGGGTGAGCACCTTCTGTGCTCTGTCCCCAACCTTCCACTTCCCCTCAACGCGCTGCTCAGGG (double strand) [CD11d promoter -378/+74 (luc reporter; printed -378/+75)]
activity on this sequence (Sp1 [2]): active
activity on this sequence (Sp2): not active
activity on this sequence (Sp3): not active

TTCTGGGAGAAGGAAGCCAGGTCCCTGCAGGTTGTGGAGGGGGACAGAATGAGGGTTTTTCCCCAGGATGTTGTTGGCCCCTGCCCCCACTTCTGTTCCATAATTAACCACGCCCCTCCTACCCACTGTGCCCCTCTTCCTGCTGTGTGGAGGCCCTGAATCATTATTTTAACTACCCCCTGGGAGGGTGAGCACCTTCTGTGCTCTGTCCCCAACCTTCCACTTCCCCTCAACGCGCTGCTCAGGG (double strand) [CD11d promoter -173/+74]
binding result (Sp1 [3]): binds
